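Human melanoma cell lines in 1,536-well plates were treated with two drugs together for 72 h, then fixed, stained and imaged. Values are the number of DAPI-stained nuclei as a percentage of the DMSO control: 100 is no effect, lower means fewer cells. Concentrations were fixed for each drug; these are the higher of two levels. The file gives one value for each pair and line, without errors, so small differences may be noise.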
This is part of the screen, not chosen by result.

Drug key:
Src-I1: COc1cc2ncnc(Nc3ccc(Oc4ccccc4)cc3)c2cc1OC at 10 µM
lenalidomide: Nc1cccc2c1CN(C1CCC(=O)NC1=O)C2=O (centres undefined) at 5 µM
cisplatin: N.N.[Cl][Pt][Cl] at 8 µM
indole-3-carbinol: OCc1c[nH]c2ccccc12 at 4 µM
SNS-314: O=C(Nc1cccc(Cl)c1)Nc1ncc(CCNc2ncnc3ccsc23)s1 at 0.004 µM
pazopanib: Cc1ccc(Nc2nccc(N(C)c3ccc4c(C)n(C)nc4c3)n2)cc1S(N)(=O)=O at 2 µM
A-769662: N#Cc1c(O)c2c(-c3ccc(-c4ccccc4O)cc3)csc2[nH]c1=O at 10 µM
nilutamide: CC1(C)NC(=O)N(c2ccc([N+](=O)[O-])c(C(F)(F)F)c2)C1=O at 5 µM
cediranib: COc1cc2c(Oc3ccc4[nH]c(C)cc4c3F)ncnc2cc1OCCCN1CCCC1 at 2 µM

{"drugs": "nilutamide + indole-3-carbinol", "WM3619": 103, "COLO 800": 119, "C32": 104, "COLO 792": 83.2, "WM451Lu": 96.7, "COLO 829": 120}
{"drugs": "A-769662 + pazopanib", "WM3619": 81.4, "COLO 800": 108, "C32": 105, "COLO 792": 103, "WM451Lu": 94.6, "COLO 829": 84.5}
{"drugs": "lenalidomide + A-769662", "WM3619": 97.1, "COLO 800": 88.4, "C32": 107, "COLO 792": 82.5, "WM451Lu": 104, "COLO 829": 82.9}
{"drugs": "SNS-314 + lenalidomide", "WM3619": 92.2, "COLO 800": 43.7, "C32": 78.9, "COLO 792": 46.9, "WM451Lu": 58.2, "COLO 829": 65.6}
{"drugs": "cediranib + pazopanib", "WM3619": 160, "COLO 800": 71.7, "C32": 95.9, "COLO 792": 109, "WM451Lu": 102, "COLO 829": 102}
{"drugs": "Src-I1 + cisplatin", "WM3619": 87.1, "COLO 800": 108, "C32": 105, "COLO 792": 84.0, "WM451Lu": 86.1, "COLO 829": 99.0}
{"drugs": "pazopanib + lenalidomide", "WM3619": 63.3, "COLO 800": 92.4, "C32": 110, "COLO 792": 120, "WM451Lu": 86.1, "COLO 829": 101}
{"drugs": "Src-I1 + indole-3-carbinol", "WM3619": 95.8, "COLO 800": 113, "C32": 104, "COLO 792": 70.4, "WM451Lu": 92.0, "COLO 829": 130}
{"drugs": "indole-3-carbinol + A-769662", "WM3619": 99.7, "COLO 800": 196, "C32": 103, "COLO 792": 115, "WM451Lu": 113, "COLO 829": 117}
{"drugs": "cisplatin + nilutamide", "WM3619": 92.2, "COLO 800": 52.0, "C32": 98.5, "COLO 792": 97.5, "WM451Lu": 77.2, "COLO 829": 97.7}
{"drugs": "SNS-314 + cisplatin", "WM3619": 63.3, "COLO 800": 75.9, "C32": 74.6, "COLO 792": 84.9, "WM451Lu": 87.8, "COLO 829": 111}
{"drugs": "cisplatin + A-769662", "WM3619": 71.5, "COLO 800": 103, "C32": 108, "COLO 792": 95.8, "WM451Lu": 118, "COLO 829": 119}
{"drugs": "cediranib + lenalidomide", "WM3619": 87.1, "COLO 800": 75.0, "C32": 80.0, "COLO 792": 65.7, "WM451Lu": 105, "COLO 829": 103}
{"drugs": "nilutamide + Src-I1", "WM3619": 78.5, "COLO 800": 140, "C32": 120, "COLO 792": 84.9, "WM451Lu": 91.5, "COLO 829": 110}
{"drugs": "nilutamide + A-769662", "WM3619": 118, "COLO 800": 84.8, "C32": 118, "COLO 792": 112, "WM451Lu": 123, "COLO 829": 115}
{"drugs": "SNS-314 + Src-I1", "WM3619": 75.9, "COLO 800": 72.8, "C32": 75.3, "COLO 792": 46.2, "WM451Lu": 59.0, "COLO 829": 77.8}
{"drugs": "SNS-314 + nilutamide", "WM3619": 71.7, "COLO 800": 39.0, "C32": 72.1, "COLO 792": 43.3, "WM451Lu": 42.6, "COLO 829": 83.7}
{"drugs": "pazopanib + cisplatin", "WM3619": 72.8, "COLO 800": 66.7, "C32": 89.8, "COLO 792": 134, "WM451Lu": 80.4, "COLO 829": 73.2}
{"drugs": "cisplatin + cediranib", "WM3619": 104, "COLO 800": 76.1, "C32": 89.4, "COLO 792": 64.6, "WM451Lu": 121, "COLO 829": 102}
{"drugs": "cediranib + nilutamide", "WM3619": 97.5, "COLO 800": 50.1, "C32": 110, "COLO 792": 57.0, "WM451Lu": 96.5, "COLO 829": 94.6}
{"drugs": "nilutamide + lenalidomide", "WM3619": 91.6, "COLO 800": 64.7, "C32": 113, "COLO 792": 82.8, "WM451Lu": 94.3, "COLO 829": 78.0}
{"drugs": "indole-3-carbinol + lenalidomide", "WM3619": 93.0, "COLO 800": 115, "C32": 116, "COLO 792": 108, "WM451Lu": 101, "COLO 829": 70.7}
{"drugs": "lenalidomide + Src-I1", "WM3619": 75.5, "COLO 800": 96.7, "C32": 93.7, "COLO 792": 73.2, "WM451Lu": 73.6, "COLO 829": 122}
{"drugs": "pazopanib + Src-I1", "WM3619": 56.1, "COLO 800": 92.8, "C32": 91.0, "COLO 792": 58.6, "WM451Lu": 78.1, "COLO 829": 102}
{"drugs": "cediranib + Src-I1", "WM3619": 70.2, "COLO 800": 54.9, "C32": 87.4, "COLO 792": 52.9, "WM451Lu": 67.4, "COLO 829": 124}
{"drugs": "cisplatin + lenalidomide", "WM3619": 79.5, "COLO 800": 96.4, "C32": 129, "COLO 792": 87.7, "WM451Lu": 107, "COLO 829": 73.1}
{"drugs": "SNS-314 + A-769662", "WM3619": 90.0, "COLO 800": 46.2, "C32": 65.0, "COLO 792": 49.4, "WM451Lu": 49.2, "COLO 829": 74.2}
{"drugs": "cisplatin + indole-3-carbinol", "WM3619": 92.6, "COLO 800": 95.5, "C32": 91.1, "COLO 792": 87.9, "WM451Lu": 91.2, "COLO 829": 99.4}

Some entries from above, unchanged:

| Drugs | WM3619 | COLO 800 | C32 | COLO 792 | WM451Lu | COLO 829 |
|---|---|---|---|---|---|---|
| indole-3-carbinol + lenalidomide | 93.0 | 115 | 116 | 108 | 101 | 70.7 |
| cisplatin + A-769662 | 71.5 | 103 | 108 | 95.8 | 118 | 119 |

From a melanoma drug combination screen (doi:10.1371/journal.pone.0140310); values rounded.